Taken from: PubChem BioAssay AID1224826 (NIAID, 2016)

Screen: 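Knock-downs that raise or lower Tnf reporter signal after endotoxin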 (primary screen)
Cell system: RAW264.7 G9 macrophages from mouse bearing reporters for p65 (GFP) and the Tnf promoter (mCherry)
Reagent: siRNA pool against mouse genes, 100 nM
Time to read-out: 16 h of LPS stimulation, after 2 days of siRNA transfection
Treatment: bacterial lipopolysaccharide (Salmonella minnesota R595), 10 ng/ml
Measured: 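Imaged Tnf reporter mCherry in nuclei, minus background, normalised per plate to the median and expressed as robust z-scores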
Reading the numbers: Tnf reporter robust z-score: higher = stronger Tnf promoter reporter signal after LPS
Hit rule: 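a well counts as active at a score of -1.3 or below (Tlr4 knock-down control median) or above 3 (raised signal); controls and wells holding fewer than 50 cells are excluded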
Calls: active = Tnf reporter clearly lowered or raised; inactive = no clear change in Tnf reporter
The whole screen tested about 17,000 reagents; shown is a part drawn at random. About 1,110 of all reagents (6.6%) were called active. 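Active means lowered or raised reporter signal; replicate intensities are raw and not normalised per plate.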 Further read-outs or replicates are left out here. Reagent sequences are not shown.

Ccdc180 (coiled-coil domain containing 180) → Tnf reporter robust z-score = -0.15; fewer than 50 cells in well = enough cells in well; Call = inactive
Stk3 (serine/threonine kinase 3) → Tnf reporter robust z-score = -0.69; fewer than 50 cells in well = enough cells in well; Call = inactive
Txndc11 (thioredoxin domain containing 11) → Tnf reporter robust z-score = 4.15; fewer than 50 cells in well = enough cells in well; Call = active
Dach1 (dachshund family transcription factor 1) → Tnf reporter robust z-score = 0.62; fewer than 50 cells in well = enough cells in well; Call = inactive
Inpp5e (inositol polyphosphate-5-phosphatase E) → Tnf reporter robust z-score = 0.95; fewer than 50 cells in well = enough cells in well; Call = inactive
Kctd9 (potassium channel tetramerisation domain containing 9) → Tnf reporter robust z-score = -1.08; fewer than 50 cells in well = enough cells in well; Call = inactive
Zscan5b (zinc finger and SCAN domain containing 5B) → Tnf reporter robust z-score = 2.84; fewer than 50 cells in well = enough cells in well; Call = inactive
Ppia (peptidylprolyl isomerase A) → Tnf reporter robust z-score = -0.62; fewer than 50 cells in well = enough cells in well; Call = inactive
Gimap4 (GTPase, IMAP family member 4) → Tnf reporter robust z-score = -0.19; fewer than 50 cells in well = enough cells in well; Call = inactive
Tsc22d1 (TSC22 domain family, member 1) → Tnf reporter robust z-score = -0.06; fewer than 50 cells in well = enough cells in well; Call = inactive
Hamp (hepcidin antimicrobial peptide) → Tnf reporter robust z-score = 0.8; fewer than 50 cells in well = enough cells in well; Call = inactive
Or8i2 (olfactory receptor family 8 subfamily I member 2) → Tnf reporter robust z-score = -0.56; fewer than 50 cells in well = enough cells in well; Call = inactive
Eef1b2 (eukaryotic translation elongation factor 1 beta 2) → Tnf reporter robust z-score = -0.39; fewer than 50 cells in well = enough cells in well; Call = inactive
Rpl7l1 (ribosomal protein L7-like 1) → Tnf reporter robust z-score = 1.93; fewer than 50 cells in well = enough cells in well; Call = inactive
